# Laboratory results published in US10550120B2, “Indole alkaloid compound having immune checkpoint inhibitory action” (TOHOKU UNIVERSITY, priority 2016, dated 2020).
# Some results were stated once for a whole list of compounds, not compound by compound.
# Tests used:
# [1] = tested on: CTLA-4; experiment: Intracellular staining of MT2 cells with fluorescence-labeled anti-CTLA-4 antibody and measurement by flow cytometry; format: cell-based, human; conditions: 10-25.0 μmol/L
# Procedure: (§1) MT2 cells from human adult T-cell leukemia were used. Leukemia cells of human adult T-cell leukemia (ATL) express CD4 and CD25 molecules on the cell surface and are considered to be derived from Treg (Chen S. et al., International Immunology 18:269-277 (2005)). MT2 cells were used in experiments as models of Treg since the cells are CD4 positive, CD25 positive, and FOXP3 positive celles derived from ATL.
# (§2) The example compounds (compounds 1-17) of the present invention were dissolved in dimethylsulfoxide (DMSO) to prepare each 50 mmol/L solution, which was preserved at −80° C.
# (1) MT2 cells were suspended in RPMI1640 medium (hereinafter referred to as “the medium”) supplemented with 10% fetal calf serum (FCS) and 1° penicillin/streptomycin (P/S) to give 3×10^5 cells/mL suspension and 3 mL of the suspension was added to each well of a 6-well plate. To each well were added 0.6 or 1.2 μL of the test compound solutions (compounds 1, 2, and 4), 0.75 or 1.5 μL of the test compound solution (compound 9), and 1.5 μL of the test compound solutions (compounds 8 and 10-17), and the cell cultures were incubated in a CO2 gas incubator (under 37° C., 5% CO2) and cultured for 48±2 hours. As a control of compound 1, 2 and 4, only 1.2 μL of DMSO was added to the well. In addition, as a control of compound 8-17, only 1.5 μL of DMSO was added to the well.
# (2) A piece of the cell culture was sampled to count cells with a cell counter (BIO RAD TC-20). The cell culture was centrifuged at 300×g for 5 min, and the supernatant was removed. The residue was suspended in phosphate buffered saline (supplemented with 1% bovine serum albumin (BSA), without calcium and magnesium) (1% BSA/PBS) to adjust the concentration of cells to 5-10×10^6 cells/mL.
# (3) To 5 ml tube, each 50 μL of the cell suspension was added.
# (4) Foxp3/Transcription Factor Fix/Perm Concentrate (4×) (Cat. No. TNB-1020-L050) (Solution A) in FOXP3/Transcription Factor Staining kit (TONBO biosciences) was diluted with Foxp3/Transcription Factor Fix/Perm Diluent (1×) (Cat. No. TNB-1022-L160) (for dilution of Solution A) to prepare 1× Solution A.
# (5) 1 mL of 1× Solution A was added to each tube and mixed by gentle pipetting. Subsequently, it was left at room temperature for 30 min, centrifuged at 300×g for […], and the supernatant was discarded.
# (6) Flow Cytometry Perm Buffer (10×) (Cat. No. TNB-1213-L150) (Solution B) in the kit was diluted 10-fold with water to prepare 1× Solution B.
# (7) 2 mL of 1× Solution B was added to the tube and centrifuged at 300×g for 5 min. The supernatant was discarded. 2 μL of 2% normal mouse serum/PBS was added to the tube and the tube was gently pipetted. Subsequently, it was left at room temperature for 15 min.
# (8) In the CTLA-4 measurement, 20 μL of anti-CTLA-4 antibody (BECKMAN COULTER, CD152-PE clone BN13I M2282) or mouse IgG2a (BECKMAN COULTER, IgG2a (Mouse)-PE A09142) for the control was added to the tube and the tube was gently stirred. Subsequently, it was left in the dark at room temperature for 30 min, and 2 mL of the 1× Solution B was added thereto, the mixture was centrifuged at 300×g for 5 min, and the supernatant was discarded. 2 mL of the 1× Solution B was added to the tube again, the mixture was centrifuged at 300×g for 5 min, and the supernatant was discarded.
# (9) Within 2 hours after the solution in the tube was suspended in 0.5 mL of 1% BSA/PBS, and the fluorescence at 577 nm was measured with 488 nm excitation with a flow cytometer (Sony: Cell Sorter SH800). The results were analyzed with software, FlowJo (Tree Star Inc.). The mean peak fluorescence intensity (MFI) of CTLA-4 and mean peak fluorescence intensity of isotype control IgG2a were calculated from histgrams of the measured fluorescence intensity and number of cells, and mean fluorescence intensity of IgG2a was subtracted from that of CTLA-4. Experiments were conducted in n=3, and the average values were shown.
# [2] = tested on: IL-10; experiment: Measurement of human IL-10 amount in culture supernatant of MT2 cells with ELISA kit (Test 1); format: cell-based
# Procedure: as §1, §2
# The amount of IL-10 production in the control and the example compounds was measured to evaluate the inhibitory effect on IL-10 production of the example compounds of the present invention.
# (1) MT2 cells are suspended in RPMI1640 medium (hereinafter referred to as “the medium”) supplemented with 10% fetal calf serum (FCS) and 1% penicillin/streptomycin (P/S) to give 3×10^5 cells/mL suspension, and 1 mL of the suspension was added to each well of a 24-well plate. […] The cell cultures were incubated 48±2 hours in a CO2 incubator (under a condition of 37° C., 5 CO2). DMSO was diluted 50-fold with the medium, and 20 μL of the diluent was added to the well to make a control of compounds 1-7. In addition, DMSO was diluted 50-fold with the medium, and 25.0 μL of the diluent was added to the well to make a control of compounds 8-17.
# (2) A piece of the cell culture was sampled to count cells with a cell counter (BIO RAD TC-20). The cell culture was centrifuged at 300×g for 5 minutes and the supernatant was collected as a sample for IL-10 measurement. When not measured within a day, it was preserved in a freezer at −80° C.
# (3) Human IL-10 ELISA kit II (BD OptEIA) was used on the measurement. The kit contains wells treated with anti-IL-10 antibody (8 wells/strip), Standard/Sample diluent, vials comprising freeze-dried IL-10 Standard (1280 pg/vial), ELISA diluent, 20× Wash Buffer, Detection antibody, Enzyme Concentrate, TMB One Step Substrate Reagent, Stop Solution, and cover sheets.
# (4) To a vial containing IL-10 Standard was added […] Standard/Sample diluent, and the vial was stood at room temperature for 15 minutes to be dissolved (Standard sample stock solution 1L-10 concentration: 500 pg/mL).
# (5) Standard samples in each concentration for making a standard curve were prepared as follows. Firstly, to 300 μL of the medium was added 300 μL of the standard sample stock solution, and the mixture was mixed with a Voltex mixer (250 pg/mL). Next, 300 μL of the standard sample of 250 pg/mL was added to 300 μL of the medium and the mixture was mixed with a Voltex mixer (125 pg/mL). The same procedures were successively repeated to prepare standard solutions of 62.5, 31.25, 15.625, and 7.8125 pg/mL. As 0 pg/mL standard solution, the medium was used.
# (6) A kit containing wells treated with anti-IL-10 antibody (8 wells/strip) was warmed to room temperature and 50 μL of ELISA diluent in the kit was added into each well.
# (7) To each well containing ELISA diluent, 100 μL of the standard samples of each concentration and each test sample (diluded 50-100 fold with medium) were added.
# (8) After the wells were sealed with a cover sheet and gently tapped, they were left at room temperature for 2 hours.
# (9) 20× Wash Buffer was diluted 20-fold with water to prepare 1× Wash Buffer.
# (10) After the reaction was done for 2 hours, the solutions in each well were aspirated and washed 5 times with 300 μL of 1× Wash Buffer.
# (11) After Enzyme Concentrate (4 μL per 8 wells) was added to Detection antibody (1 ml per 8 wells), the solution was mixed by a Vortex mixer and then a necessary amount of Working Detector was prepared.
# (12) 100 μL of Working Detector was added to each well, covered with a cover sheet, and the wells were left at room temperature for an hour.
# (13) After the reaction was done for an hour, the solutions in wells were aspirated and washed 7 times with 300 μL of 1× Wash Buffer. […]
Structure (SMILES),inhibitory effect on CTLA-4 expression (in words) [1],inhibitory effect on IL-10 production (in words) [2]
COC(=O)C1=CN2CCc3c([nH]c4ccccc34)[C@H]2[C@@H]2C(CO)=CC[C@H]12 [Compound 4],exhibit the inhibitory effect on CTLA-4 expression,especially potent inhibitory effect
COC(=O)C1=CN2CCc3c([nH]c4cc(OC)ccc34)[C@@H]2[C@@H]2[C@@H](C)[C@@H](O)C[C@H]12 [Compound 8],exhibit the inhibitory effect on CTLA-4 expression,especially potent inhibitory effect
COC(=O)C1=CN2CCc3c([nH]c4cc(Cl)ccc34)[C@@H]2[C@@H]2[C@@H](C)[C@@H](O)C[C@H]12 [Compound 9],exhibit the inhibitory effect on CTLA-4 expression,especially potent inhibitory effect
COC(=O)C1=CN2CCc3c([nH]c4ccc(OC)cc34)[C@@H]2[C@@H]2[C@@H](C)[C@@H](O)C[C@H]12 [Compound 10],exhibit the inhibitory effect on CTLA-4 expression,especially potent inhibitory effect
COC(=O)C1=CN2CCc3c([nH]c4c(C)cccc34)[C@@H]2[C@@H]2[C@@H](C)[C@@H](O)C[C@H]12 [Compound 11],exhibit the inhibitory effect on CTLA-4 expression,especially potent inhibitory effect
COC(=O)C1=CN2CCc3c([nH]c4ccc(Cl)cc34)[C@@H]2[C@@H]2[C@@H](C)[C@@H](O)C[C@H]12 [Compound 12],exhibit the inhibitory effect on CTLA-4 expression,especially potent inhibitory effect
COC(=O)C1=CN2CCc3c([nH]c4ccc(Br)cc34)[C@@H]2[C@@H]2[C@@H](C)[C@@H](O)C[C@H]12 [Compound 13],exhibit the inhibitory effect on CTLA-4 expression,especially potent inhibitory effect
COC(=O)C1=CN2CCc3c([nH]c4ccc(C)cc34)[C@@H]2[C@@H]2[C@@H](C)[C@@H](O)C[C@H]12 [Compound 14],exhibit the inhibitory effect on CTLA-4 expression,especially potent inhibitory effect
COC(=O)C1=CN2CCc3c([nH]c4ccc(OCc5ccccc5)cc34)[C@@H]2[C@@H]2[C@@H](C)[C@@H](O)C[C@H]12 [Compound 15],exhibit the inhibitory effect on CTLA-4 expression,especially potent inhibitory effect
COC(=O)C1=CN2CCc3c([nH]c4ccc(O)cc34)[C@@H]2[C@@H]2[C@@H](C)[C@@H](O)C[C@H]12 [Compound 16],exhibit the inhibitory effect on CTLA-4 expression,especially potent inhibitory effect
COC(=O)C1=CN2CCc3c([nH]c4c(F)cccc34)[C@@H]2[C@@H]2[C@@H](C)[C@@H](O)C[C@H]12 [Compound 17],exhibit the inhibitory effect on CTLA-4 expression,especially potent inhibitory effect
